In publication PMC5389555:
Changes are numbered by the printed parent chain. Results are given in words; binding and its absence hold for the method and conditions named. Binding seen in cells or lysates may run through a third protein. A result given as binding can be weak or reduced; the word gives no strength. For some assays here: Tags and fused reporters may be left off the sequences shown.

What was measured:
Flag-Drosha-S300E,S302D = molecular target: T1, Flag-Drosha-S300E,S302D (UniProt Q9NRR4); assay: co-IP; HEK293T transfected with Flag-Drosha (WT or S300E,S302D) ± GSK3β-S9A or GSK3β-K85R, 48 h; lysates pre-cleared, anti-Flag M2 beads, 4°C overnight; blots for GSK3β, Flag, DGCR8, p72
T1 sequence: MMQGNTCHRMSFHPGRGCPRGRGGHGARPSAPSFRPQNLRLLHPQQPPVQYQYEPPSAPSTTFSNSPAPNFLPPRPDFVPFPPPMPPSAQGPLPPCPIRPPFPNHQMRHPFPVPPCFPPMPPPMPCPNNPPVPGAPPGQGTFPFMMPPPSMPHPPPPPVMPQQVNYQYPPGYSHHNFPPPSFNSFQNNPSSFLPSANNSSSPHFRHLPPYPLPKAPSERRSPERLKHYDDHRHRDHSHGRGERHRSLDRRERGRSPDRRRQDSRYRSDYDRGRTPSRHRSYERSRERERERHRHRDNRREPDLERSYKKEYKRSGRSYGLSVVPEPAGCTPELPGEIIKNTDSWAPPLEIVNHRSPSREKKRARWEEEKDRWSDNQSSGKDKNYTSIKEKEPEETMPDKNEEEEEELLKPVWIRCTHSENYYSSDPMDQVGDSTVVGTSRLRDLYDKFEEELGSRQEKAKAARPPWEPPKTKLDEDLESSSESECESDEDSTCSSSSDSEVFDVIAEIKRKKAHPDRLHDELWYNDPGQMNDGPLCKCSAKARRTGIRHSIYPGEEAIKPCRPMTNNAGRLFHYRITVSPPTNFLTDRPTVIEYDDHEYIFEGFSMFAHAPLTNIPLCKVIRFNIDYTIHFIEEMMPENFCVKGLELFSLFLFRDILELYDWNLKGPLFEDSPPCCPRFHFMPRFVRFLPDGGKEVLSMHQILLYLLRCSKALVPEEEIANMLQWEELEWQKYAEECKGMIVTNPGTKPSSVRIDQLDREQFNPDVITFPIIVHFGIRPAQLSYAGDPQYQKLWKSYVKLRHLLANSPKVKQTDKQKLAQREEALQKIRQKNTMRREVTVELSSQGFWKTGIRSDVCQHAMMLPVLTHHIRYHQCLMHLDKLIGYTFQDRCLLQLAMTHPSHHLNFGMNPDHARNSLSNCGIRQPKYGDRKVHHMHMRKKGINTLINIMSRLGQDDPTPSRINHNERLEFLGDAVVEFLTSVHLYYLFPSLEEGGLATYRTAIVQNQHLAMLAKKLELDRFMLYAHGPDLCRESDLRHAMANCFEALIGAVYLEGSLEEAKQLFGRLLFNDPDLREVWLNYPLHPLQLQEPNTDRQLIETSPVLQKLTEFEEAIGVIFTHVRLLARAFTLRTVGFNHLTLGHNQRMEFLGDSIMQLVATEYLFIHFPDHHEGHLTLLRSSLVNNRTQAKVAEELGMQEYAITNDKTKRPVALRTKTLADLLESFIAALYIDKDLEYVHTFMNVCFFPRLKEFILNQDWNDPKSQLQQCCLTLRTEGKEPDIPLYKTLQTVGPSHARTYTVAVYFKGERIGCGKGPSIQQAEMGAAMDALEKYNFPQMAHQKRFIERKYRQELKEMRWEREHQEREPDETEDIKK

[1] = molecular target: T2, Drosha (endogenous) (human (endogenous in HEK293T)) (UniProt Q9NRR4); assay: co-IP; endogenous Drosha precipitated from HEK293T lysates (cells ± 2 μM 99021, 48 h) with rabbit anti-Drosha antibody on Protein G Dynabeads, 4°C overnight; rabbit IgG control; blots for DGCR8 and p72
T2 sequence: T1 sequence with E300S, D302S

binding (Flag-Drosha-S300E,S302D): binds
binding [1]: binds
Substance: p72 (DDX17) (endogenous) (human (endogenous in HEK293T))
